# In the supplement of paper PMC7238544:
# Structures can show the parent of a compound that is named as a salt. ± gives the standard deviation of the averaged measurements. The list shows a part of the results. The data scatter; read single values as rough.
# Legend:
# [1] = test system: hAMSC donor 1; assay: Hoechst total cell count ratio vs vehicle control; higher = more cells (less toxicity)
# [2] = test system: hAMSC donor 2; assay: as above
# [3] = test system: hAMSC donor 1; assay: transgenic luciferase activity (RLU/mg protein) fold change vs vehicle control (ratio); higher = more transgene expression
# [4] = test system: hAMSC donor 2; assay: as above
# [5] = test system: hAMSC donor 1; assay: transfection efficiency (EGFP+ cells / Hoechst count) fold change vs vehicle control (ratio); hAMSC are human adipose-derived mesenchymal stem cells given an EGFP-luciferase plasmid by lipofection; higher = enhanced transfection
# [6] = test system: hAMSC donor 2; assay: as above
# [7] = priming compound concentration 0.2 µM
# [8] = priming compound concentration 1.7 µM
# [9] = priming compound concentration 13 µM
Structure (SMILES),"Hoechst total cell count ratio [1, 7]","Hoechst total cell count ratio [1, 8]","Hoechst total cell count ratio [1, 9]","Hoechst total cell count ratio [2, 7]","Hoechst total cell count ratio [2, 8]","Hoechst total cell count ratio [2, 9]","transgenic luciferase activity [3, 7]","transgenic luciferase activity [4, 7]","transfection efficiency [5, 7]","transfection efficiency [5, 8]","transfection efficiency [5, 9]","transfection efficiency [6, 7]","transfection efficiency [6, 8]","transfection efficiency [6, 9]","transgenic luciferase activity [4, 8]","transgenic luciferase activity [3, 8]","transgenic luciferase activity [4, 9]"
CN(C)CCc1c[nH]c2ccc(Cn3cncn3)cc12 [Rizatriptan benzoate],1.12 ± 0.054,0.829 ± 0.15,1.04 ± 0.069,1.11 ± 0.13,1.25 ± 0.085,1.3 ± 0.11,0.756 ± 0.38,1.19 ± 0.083,1.28 ± 0.27,1.27 ± 0.32,1.63 ± 0.25,1.28 ± 0.36,0.952 ± 0.084,1.02 ± 0.046,,,
CC#C[C@]1(O)CC[C@H]2[C@@H]3CCC4=CC(=O)CCC4=C3[C@@H](c3ccc(N(C)C)cc3)C[C@@]21C,0.853 ± 0.072,1.14 ± 0.15,1.03 ± 0.091,0.969 ± 0.074,1.55 ± 0.15,0.948 ± 0.36,0.901 ± 0.061,,1.41 ± 0.11,1.16 ± 0.41,1.36 ± 0.18,1.34 ± 0.19,1.35 ± 0.095,1.12 ± 0.079,0.809 ± 0.039,,
COc1cc(OC)c(C(=O)CCCN2CCCC2)c(OC)c1 [Buflomedil hydrochloride],1.04 ± 0.14,1.03 ± 0.13,1.18 ± 0.061,1.19 ± 0.19,1.14 ± 0.06,0.859 ± 0.029,,,1.26 ± 0.22,1.45 ± 0.54,1.1 ± 0.15,1.5 ± 0.26,1.14 ± 0.069,1.32 ± 0.2,,1.13 ± 0.34,1.03 ± 0.22
CC(C)(S)C(N)C(=O)O (racemic) [DL-Penicillamine],1.2 ± 0.11,1.27 ± 0.17,1.3 ± 0.12,1.01 ± 0.1,1.24 ± 0.023,1.36 ± 0.092,2.43 ± 1.1,0.872 ± 0.33,0.602 ± 0.14,1.17 ± 0.34,1.21 ± 0.3,1.19 ± 0.13,0.83 ± 0.083,0.793 ± 0.03,,,
OCc1cccnc1 [3-Pyridinemethanol],1.1 ± 0.017,0.992 ± 0.14,1.08 ± 0.2,1.14 ± 0.24,1.61 ± 0.036,0.951 ± 0.2,0.617 ± 0.29,,1.08 ± 0.25,1.31 ± 0.64,1.13 ± 0.071,1.06 ± 0.29,0.903 ± 0.24,1.11 ± 0.28,0.316 ± 0.05,,
C[C@]12C[C@H](O)[C@H]3[C@@H](CCC4=CC(=O)CC[C@@]43C)[C@@H]1CC[C@@H]2C(=O)CO [Corticosterone],1.09 ± 0.24,1.23 ± 0.15,1.33 ± 0.2,1.07 ± 0.14,1.81 ± 0.11,1.23 ± 0.54,0.734 ± 0.14,,1.54 ± 0.33,1.01 ± 0.41,1.19 ± 0.24,1.3 ± 0.1,1.29 ± 0.27,1.57 ± 0.54,1.33 ± 0.45,,
C[C@H](CS)C(=O)N1CCC[C@H]1C(=O)O [Captopril],1.26 ± 0.15,1.35 ± 0.19,1.32 ± 0.17,0.943 ± 0.057,1.5 ± 0.083,1.41 ± 0.12,1.6 ± 0.58,0.772 ± 0.2,0.476 ± 0.18,1.13 ± 0.46,1.45 ± 0.39,1.55 ± 0.13,0.651 ± 0.02,0.907 ± 0.23,,,
CCN1CCCC1CNC(=O)c1cc(S(=O)(=O)CC)c(N)cc1OC (stereo not given) [Amisulpride],1.4 ± 0.11,1.35 ± 0.16,1.32 ± 0.15,0.961 ± 0.043,1.12 ± 0.11,1.28 ± 0.056,0.755 ± 0.34,0.736 ± 0.063,0.647 ± 0.2,1.01 ± 0.39,1.54 ± 0.49,1.55 ± 0.19,0.88 ± 0.041,0.913 ± 0.17,,,
CN1CCN(c2nc3cc(C(F)(F)F)ccc3n3cccc23)CC1,1.24 ± 0.21,1.24 ± 0.15,1.19 ± 0.25,1.21 ± 0.071,1.39 ± 0.029,1.45 ± 0.29,0.929 ± 0.18,,0.991 ± 0.4,0.908 ± 0.36,0.926 ± 0.49,1.02 ± 0.16,1.15 ± 0.093,0.696 ± 0.18,0.649 ± 0.24,,
CC(=O)N[C@H]1[C@H]([C@H](O)[C@H](O)CO)OC(C(=O)O)=C[C@@H]1NC(=N)N [Zanamivir hydrate],1.36 ± 0.14,1.37 ± 0.17,1.23 ± 0.12,1.01 ± 0.11,1.05 ± 0.085,1.18 ± 0.063,0.585 ± 0.53,1.01 ± 0.38,0.671 ± 0.17,0.872 ± 0.13,1.6 ± 1.2,1.43 ± 0.26,0.907 ± 0.044,0.899 ± 0.15,,,
O=C(CCCN1CC=C(n2c(=O)[nH]c3ccccc32)CC1)c1ccc(F)cc1 [Droperidol],1.21 ± 0.062,1.03 ± 0.024,1.24 ± 0.024,1.29 ± 0.24,1.59 ± 0.15,0.95 ± 0.08,,,1.38 ± 0.21,1.49 ± 0.61,0.981 ± 0.067,1.03 ± 0.11,1.15 ± 0.18,1.37 ± 0.24,,0.768 ± 0.48,0.893 ± 0.14
c1ccc2c(CC3=NCCN3)cccc2c1 [Naphazoline hydrochloride],1.16 ± 0.12,1.2 ± 0.081,1.2 ± 0.087,0.97 ± 0.28,1.02 ± 0.43,0.828 ± 0.14,1.38 ± 0.48,,1.04 ± 0.36,0.7 ± 0.28,1 ± 0.32,1.09 ± 0.055,0.823 ± 0.27,1.11 ± 0.19,0.705 ± 0.56,,
CC1(C)S[C@@H]2[C@H](NC(=O)[C@H](N)c3ccccc3)C(=O)N2[C@H]1C(=O)O [Ampicillin sodium],1.14 ± 0.028,1.22 ± 0.25,1.31 ± 0.11,0.744 ± 0.02,1.08 ± 0.029,1.27 ± 0.17,1.52 ± 0.97,0.736 ± 0.25,0.669 ± 0.2,1.19 ± 0.69,1.66 ± 0.4,1.49 ± 0.23,0.865 ± 0.064,0.94 ± 0.09,,,
CC(C)[C@H](N)C(=O)OCCOCn1cnc2c(=O)nc(N)[nH]c21 [Valaciclovir hydrochloride],1.07 ± 0.14,1.12 ± 0.11,1.19 ± 0.11,1.48 ± 0.15,1.61 ± 0.059,1.03 ± 0.14,,,1.09 ± 0.22,0.725 ± 0.058,0.947 ± 0.3,0.937 ± 0.049,0.81 ± 0.029,1.55 ± 0.23,,1.45 ± 0.53,0.993 ± 0.77
CN(C)CCCC1(c2ccc(F)cc2)OCc2cc(C#N)ccc21 (stereo not given) [Citalopram hydrobromide],1.14 ± 0.15,1.27 ± 0.12,1.24 ± 0.064,1.21 ± 0.13,1.33 ± 0.067,1.28 ± 0.21,1.16 ± 0.3,0.864 ± 0.17,0.98 ± 0.34,0.66 ± 0.2,0.971 ± 0.38,1.19 ± 0.28,0.865 ± 0.16,0.871 ± 0.1,,,

# Some of these compounds in order of number of heavy atoms, high to low.
Structure (SMILES),"Hoechst total cell count ratio [1, 7]","Hoechst total cell count ratio [1, 8]","Hoechst total cell count ratio [1, 9]","Hoechst total cell count ratio [2, 7]","Hoechst total cell count ratio [2, 8]","Hoechst total cell count ratio [2, 9]","transgenic luciferase activity [3, 7]","transgenic luciferase activity [4, 7]","transfection efficiency [5, 7]","transfection efficiency [5, 8]","transfection efficiency [5, 9]","transfection efficiency [6, 7]","transfection efficiency [6, 8]","transfection efficiency [6, 9]","transgenic luciferase activity [4, 8]","transgenic luciferase activity [3, 8]","transgenic luciferase activity [4, 9]"
CN1CCN(c2nc3cc(C(F)(F)F)ccc3n3cccc23)CC1,1.24 ± 0.21,1.24 ± 0.15,1.19 ± 0.25,1.21 ± 0.071,1.39 ± 0.029,1.45 ± 0.29,0.929 ± 0.18,,0.991 ± 0.4,0.908 ± 0.36,0.926 ± 0.49,1.02 ± 0.16,1.15 ± 0.093,0.696 ± 0.18,0.649 ± 0.24,,
CC(C)[C@H](N)C(=O)OCCOCn1cnc2c(=O)nc(N)[nH]c21 [Valaciclovir hydrochloride],1.07 ± 0.14,1.12 ± 0.11,1.19 ± 0.11,1.48 ± 0.15,1.61 ± 0.059,1.03 ± 0.14,,,1.09 ± 0.22,0.725 ± 0.058,0.947 ± 0.3,0.937 ± 0.049,0.81 ± 0.029,1.55 ± 0.23,,1.45 ± 0.53,0.993 ± 0.77
COc1cc(OC)c(C(=O)CCCN2CCCC2)c(OC)c1 [Buflomedil hydrochloride],1.04 ± 0.14,1.03 ± 0.13,1.18 ± 0.061,1.19 ± 0.19,1.14 ± 0.06,0.859 ± 0.029,,,1.26 ± 0.22,1.45 ± 0.54,1.1 ± 0.15,1.5 ± 0.26,1.14 ± 0.069,1.32 ± 0.2,,1.13 ± 0.34,1.03 ± 0.22
